The assay concerns the target T1, CCCTC-binding factor CTCF (human (endogenous in hESCs)) (UniProt P49711).
T1 sequence: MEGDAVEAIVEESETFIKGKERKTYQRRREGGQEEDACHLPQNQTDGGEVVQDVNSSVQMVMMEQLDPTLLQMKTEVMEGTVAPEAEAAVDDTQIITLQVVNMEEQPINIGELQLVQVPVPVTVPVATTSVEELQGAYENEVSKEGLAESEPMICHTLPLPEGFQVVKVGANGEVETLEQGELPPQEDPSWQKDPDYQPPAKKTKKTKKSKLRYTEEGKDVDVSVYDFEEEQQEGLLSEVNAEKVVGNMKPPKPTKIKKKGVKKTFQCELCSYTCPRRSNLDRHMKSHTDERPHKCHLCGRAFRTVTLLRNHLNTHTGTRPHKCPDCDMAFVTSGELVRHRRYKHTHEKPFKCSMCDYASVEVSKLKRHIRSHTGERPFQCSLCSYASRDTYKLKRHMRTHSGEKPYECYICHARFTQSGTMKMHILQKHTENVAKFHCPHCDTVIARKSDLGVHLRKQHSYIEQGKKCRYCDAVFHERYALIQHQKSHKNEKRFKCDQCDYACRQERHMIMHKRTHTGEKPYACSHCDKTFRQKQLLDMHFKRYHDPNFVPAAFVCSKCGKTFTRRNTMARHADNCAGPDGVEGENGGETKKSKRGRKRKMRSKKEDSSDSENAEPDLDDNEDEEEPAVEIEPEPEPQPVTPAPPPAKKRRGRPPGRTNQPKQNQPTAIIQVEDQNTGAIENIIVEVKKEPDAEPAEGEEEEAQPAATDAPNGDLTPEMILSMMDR
The assay can be described thus: co-IP; endogenous CTCF immunoprecipitated from hESC whole cell extract (lysis buffer with 420 mM NaCl, diluted 6X with IP buffer: 20 mM Tris HCl pH 7.5, 50 mM NaCl, 10 mM MgCl2, 2 mM EDTA, 0.5% Triton-X-100); antibody overnight at 4°C, protein-G Sepharose beads; Western blot of partners.

By UniProt entry, the sequences of proteins in these tests, tags left out.
UniProt P06748: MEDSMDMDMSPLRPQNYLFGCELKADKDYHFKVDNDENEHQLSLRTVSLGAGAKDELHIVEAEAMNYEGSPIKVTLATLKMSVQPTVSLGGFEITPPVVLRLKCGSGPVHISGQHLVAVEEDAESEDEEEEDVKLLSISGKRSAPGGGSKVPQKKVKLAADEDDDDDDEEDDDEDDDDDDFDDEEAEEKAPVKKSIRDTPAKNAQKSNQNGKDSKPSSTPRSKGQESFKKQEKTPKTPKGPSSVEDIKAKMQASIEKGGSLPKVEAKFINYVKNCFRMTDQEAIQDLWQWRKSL
UniProt Q02880: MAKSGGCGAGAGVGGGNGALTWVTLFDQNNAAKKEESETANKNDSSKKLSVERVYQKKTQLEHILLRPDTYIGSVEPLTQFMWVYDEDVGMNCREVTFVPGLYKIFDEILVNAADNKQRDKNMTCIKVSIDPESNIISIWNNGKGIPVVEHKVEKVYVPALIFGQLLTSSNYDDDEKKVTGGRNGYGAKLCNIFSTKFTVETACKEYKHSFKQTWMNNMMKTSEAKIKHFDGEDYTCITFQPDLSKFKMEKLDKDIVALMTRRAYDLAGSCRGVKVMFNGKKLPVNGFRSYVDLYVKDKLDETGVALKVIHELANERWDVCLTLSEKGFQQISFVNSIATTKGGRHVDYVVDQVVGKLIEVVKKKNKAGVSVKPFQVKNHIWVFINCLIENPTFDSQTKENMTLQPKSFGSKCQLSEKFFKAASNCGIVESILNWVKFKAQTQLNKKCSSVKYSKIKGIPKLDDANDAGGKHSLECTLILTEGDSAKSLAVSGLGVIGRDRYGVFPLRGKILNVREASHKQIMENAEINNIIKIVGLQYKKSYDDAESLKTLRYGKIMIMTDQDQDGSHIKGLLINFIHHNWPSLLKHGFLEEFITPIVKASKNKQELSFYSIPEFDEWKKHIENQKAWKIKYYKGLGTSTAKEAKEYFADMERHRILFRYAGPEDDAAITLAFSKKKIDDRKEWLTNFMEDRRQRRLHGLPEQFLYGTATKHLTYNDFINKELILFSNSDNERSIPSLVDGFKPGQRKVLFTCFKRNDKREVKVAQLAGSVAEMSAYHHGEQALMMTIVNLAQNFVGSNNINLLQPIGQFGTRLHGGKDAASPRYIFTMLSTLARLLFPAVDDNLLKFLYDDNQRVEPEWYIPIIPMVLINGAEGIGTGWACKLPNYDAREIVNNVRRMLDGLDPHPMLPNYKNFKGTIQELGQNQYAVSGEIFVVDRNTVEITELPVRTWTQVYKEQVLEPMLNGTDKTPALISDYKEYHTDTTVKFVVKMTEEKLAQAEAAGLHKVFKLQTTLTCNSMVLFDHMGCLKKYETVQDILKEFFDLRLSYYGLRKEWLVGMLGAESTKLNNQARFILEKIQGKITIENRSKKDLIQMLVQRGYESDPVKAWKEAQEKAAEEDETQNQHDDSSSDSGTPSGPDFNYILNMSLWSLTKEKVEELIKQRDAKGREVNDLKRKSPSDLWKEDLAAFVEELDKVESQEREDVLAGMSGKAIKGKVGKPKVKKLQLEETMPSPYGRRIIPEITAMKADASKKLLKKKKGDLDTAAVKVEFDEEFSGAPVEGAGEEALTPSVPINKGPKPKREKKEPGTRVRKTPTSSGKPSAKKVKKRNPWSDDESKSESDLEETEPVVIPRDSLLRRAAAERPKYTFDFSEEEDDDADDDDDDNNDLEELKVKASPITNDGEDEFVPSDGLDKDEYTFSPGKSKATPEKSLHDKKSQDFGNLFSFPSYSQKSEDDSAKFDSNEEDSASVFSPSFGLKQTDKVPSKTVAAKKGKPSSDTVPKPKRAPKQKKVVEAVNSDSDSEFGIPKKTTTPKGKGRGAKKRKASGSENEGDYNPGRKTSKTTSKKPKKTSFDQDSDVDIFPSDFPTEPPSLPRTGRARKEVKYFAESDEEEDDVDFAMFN

No constants are given. Whether binding was seen depends on the method and setting. Binding seen in cells or lysates may run through a third protein. Some binding calls cover weakened binding; strength is not graded here.

“Nucleophosmin (from UniProt P06748 1-294)”: the binding result is given as “binds”.

For the substance TopoIIβ (from UniProt Q02880 1-1626), the binding result is “binds”.

The values are drawn from article PMC3411781.
